From patent US20140193338A1, “COMPOUNDS FOR USE IN IMAGING, DIAGNOSING AND/OR TREATMENT OF DISEASES OF THE CENTRAL NERVOUS SYSTEM” (PIRAMAL IMAGING SA, priority 2011, published 2014) come the findings set out here.

The test system of this series is MAO-B. Nature of the series: PET brain time activity curves (SUV) in cynomolgus monkeys. Conditions: steady state. Format: in vivo, cynomolgus monkey. As to the method:
One monkey weighing 6.3 kg was injected i.v. with 163 MBq [^18F]rasagiline (compound F) under sevofluorane anaesthesia.
Two cynomolgus monkeys weighting 5.25 and 6.2 kg, respectively were investigated. They were injected i.v. under sevofluorane anaesthesia with 168 MBq and 174 MBq [^18F],(^2H2)rasagiline (1), respectively.

In the case of `[2H]C([2H])(C#C)N[C@H]1c2ccccc2C[C@@H]1[18F]` [compound 1, (1S,2S)-2-[^18F]fluoro-N-[(1,1-^2H2)prop-2-yn-1-yl]indan-1-amine], the “decrease in signal intensity versus compound F, striatum” value turned out to be 2.9 times and the “decrease in signal intensity versus compound F, thalamus” value amounted to 2.7 times.
